For four molecules, binding results are on record in US20240091321A1.

These are yes or no findings as the source states them, for the method shown. A result given as binding can be weak or reduced; the word gives no strength.

Experiment [1] has as its target CI-MPR receptor. Kind of experiment: CI-MPR plate binding assay in presence of M6P, conditioned media, bound PPT1 activity; concentration axis relative (by activity), no unit.
Experiment [2] deals with CI-MPR receptor. Put plainly: CI-MPR-coated plate binding assay, conditioned media of HEK 293 cells, bound TPP1 activity.
In experiment [3] the target is CI-MPR receptor. Put plainly: CI-MPR-coated plate binding assay, conditioned media of HEK 293 cells.
The target in experiment [4] is CI-MPR receptor. Kind of experiment: CI-MPR-coated plate binding assay, bound enzyme by Signature Peptide assay (FIG. 34).
Experiment [5] deals with CI-MPR receptor. Kind of experiment: CI-MPR-coated plate binding assay, conditioned media of HEK 293 cells; enzyme axis relative, no unit.

B1: PPT1-32 (wt-PPT1-vIGF2-32) (enzyme)
chain: DPPAPLPLVIWHGMGDSCCNPLSMGAIKKMVEKKIPGIYVLSLEIGKTLMEDVENSFFLNVNSQVTTVCQALAKDPKLQQGYNAMGFSQGGQFLRAVAQRCPSPPMINLISVGGQHQGVFGLPRCPGESSHICDFIRKTLNAGAYSKVVQERLVQAEYWHDPIKEDVYRNHSIFLADINQERGINESYKKNLMALKKFVMVKFLNDSIVDPVDSEWFGFYRSGQAKETIPLQETSLYTQDRLGLKEMDNAGQLVFLATEGDHLQLSEEWFYAHIIPFLGRPRAVPTQGGSGSGSTSSSRTLCGGELVDTLQFVCGDRGFLFSRGGGGSRGILEECCFRECDLALLETYCATPARSE
In the case of B1, the binding result in the experiment with CI-MPR receptor [1] was “binds”.

B2: Natural hTTP1 (enzyme)
enzyme: SYSPEPDQRRTLPPGWVSLGRADPEEELSLTFALRQQNVERLSELVQAVSDPSSPQYGKYLTLENVADLVRPSPLTLHTVQKWLLAAGAQKCHSVITQDFLTCWLSIRQAELLLPGAEFHHYVGGPTETHVVRSPHPYQLPQALAPHVDFVGGLHRFPPTSSLRQRPEPQVTGTVGLHLGVTPSVIRKRYNLTSQDVGSGTSNNSQACAQFLEQYFHDSDLAQFMRLFGGNFAHQASVARVVGQQGRGRAGIEASLDVQYLMSAGANISTWVYSSPGRHEGQEPFLQWLMLLSNESALPHVHTVSYGDDEDSLSSAYIQRVNTELMKAAARGLTLLFASGDSGAGCWSVSGRHQFRPTFPASSPYVTTVGGTSFQEPFLITNEIVDYISGGGFSNVFPRPSYQEEAVTKFLSSSPHLPPSSYFNASGRAYPDVAALSDGYWVVSNRVPIPWVSGTSASTPVFGGILSLINEHRILSGRPPLGFLNPRLYQQHGAGLFDVTRGCHESCLDEEVEGQGFCSGPGWDPVTGWGTPNFPALLKTLLNP
As to B2, in the experiment with CI-MPR receptor [2], the binding entry is given as “binds”.

B3: PPT1 engineered (enzyme)
chain: DPPAPLPLVIWHGMGDSCCNPLSMGAIKKMVEKKIPGIYVLSLEIGKTLMEDVENSFFLNVNSQVTTVCQALAKDPKLQQGYNAMGFSQGGQFLRAVAQRCPSPPMINLISVGGQHQGVFGLPRCPGESSHICDFIRKTLNAGAYSKVVQERLVQAEYWHDPIKEDVYRNHSIFLADINQERGINESYKKNLMALKKFVMVKFLNDSIVDPVDSEWFGFYRSGQAKETIPLQETSLYTQDRLGLKEMDNAGQLVFLATEGDHLQLSEEWFYAHIIPFLGRPRAVPTQGGSGSGSTSSSRTLCGGELVDTLQFVCGDRGFLFSRPASRVSRRSRGIVEECCFRECDLALLETYCATPARSE
Consider B3, for which the binding result with CI-MPR receptor [3], in the experiment with CI-MPR receptor [4] and in the experiment with CI-MPR receptor [5] was “binds” each time.

B4: PPT1-33 (wt-PPT1-vIGF2-8Q) (enzyme)
chain: B3 chain
As for B4, the binding entry in the experiment with CI-MPR receptor [1] was “binds”.
